Laboratory results: PubChem BioAssay AID1224828 (NIAID, 2016)
Assay: 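Knock-downs that increase or decrease LPS-induced p65 nuclear translocation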 (primary screen). Cells: mouse RAW264.7 G9 macrophage reporter cells (GFP-p65, Tnf promoter-mCherry). Reagents: siRNA pool against mouse genes, 100 nM. Duration: 2 days siRNA transfection, then 40 min LPS before fixation. Treatment: LPS (Salmonella minnesota R595) at 10 ng/ml. Read-out: 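Microscopy ratio of nuclear to perinuclear-ring GFP-p65 signal, scaled to the plate median; gene score is the average of two replicate robust z-scores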. Reading the numbers: p65 translocation robust z-score: higher = more nuclear NF-kappaB p65 after LPS than the plate median; nuclear/cytoplasmic p65 ratio: higher = more nuclear NF-kappaB p65. Active means: 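Active if robust z is above 3.3 (negative regulators) or below -1.56, the Tlr4 control median (positive regulators); activity score 50 or more; control wells not called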. Meaning of the calls: active = hit (p65 shift raised or lowered); inactive = no clear change.
The deposit covers about 17,000 reagents; shown is a random part of them. 762 of them (4.5%) were called active. 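Active calls include both raised and lowered p65 entry, mostly lowered; wells with fewer than 50 cells lack a z-score.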 The raw values are shown without normalisation. A number with no mark means an inactive call.

Which result is listed for Cd177?
p65 translocation robust z-score: -1.57 (active); nuclear/cytoplasmic p65 ratio, rep 1: 1.15; nuclear/cytoplasmic p65 ratio, rep 2: 1.25; low cell count flag: enough cells to score

For Ensa, how do the results read?
p65 translocation robust z-score: -0.83; nuclear/cytoplasmic p65 ratio, rep 1: 1.32; nuclear/cytoplasmic p65 ratio, rep 2: 1.48; low cell count flag: enough cells to score

With Ndufa12, how do the results read?
p65 translocation robust z-score: -1.45; nuclear/cytoplasmic p65 ratio, rep 1: 1.32; nuclear/cytoplasmic p65 ratio, rep 2: 1.16; low cell count flag: enough cells to score

With Nfam1, how do the results read?
p65 translocation robust z-score: -1.63 (active); nuclear/cytoplasmic p65 ratio, rep 1: 1.05; nuclear/cytoplasmic p65 ratio, rep 2: 1.1; low cell count flag: enough cells to score

With Cdyl2, what does the deposit list?
p65 translocation robust z-score: 0.91; nuclear/cytoplasmic p65 ratio, rep 1: 1.65; nuclear/cytoplasmic p65 ratio, rep 2: 2.02; low cell count flag: enough cells to score

Which result is listed for Rasa1?
p65 translocation robust z-score: 0.2; nuclear/cytoplasmic p65 ratio, rep 1: 1.57; nuclear/cytoplasmic p65 ratio, rep 2: 1.52; low cell count flag: enough cells to score

How did the screen score Tmem143?
nuclear/cytoplasmic p65 ratio, rep 1: 1.42; nuclear/cytoplasmic p65 ratio, rep 2: 1.32; low cell count flag: fewer than 50 cells per well; well left out of scoring

Which result is listed for Zfand2b?
p65 translocation robust z-score: 0.37; nuclear/cytoplasmic p65 ratio, rep 1: 1.6; nuclear/cytoplasmic p65 ratio, rep 2: 1.49; low cell count flag: enough cells to score

For Tcea2, how do the results read?
p65 translocation robust z-score: -1.08; nuclear/cytoplasmic p65 ratio, rep 1: 1.33; nuclear/cytoplasmic p65 ratio, rep 2: 1.4; low cell count flag: enough cells to score

What did the screen give for Tomm34?
nuclear/cytoplasmic p65 ratio, rep 1: 1.26; nuclear/cytoplasmic p65 ratio, rep 2: 1.2; low cell count flag: fewer than 50 cells per well; well left out of scoring

How did the screen score Matn3?
p65 translocation robust z-score: -0.04; nuclear/cytoplasmic p65 ratio, rep 1: 1.48; nuclear/cytoplasmic p65 ratio, rep 2: 1.3; low cell count flag: enough cells to score

For Cxcl9, how do the results read?
p65 translocation robust z-score: -0.27; nuclear/cytoplasmic p65 ratio, rep 1: 1.46; nuclear/cytoplasmic p65 ratio, rep 2: 1.55; low cell count flag: enough cells to score

With Or10q1b, what was measured?
p65 translocation robust z-score: 3.44 (active); nuclear/cytoplasmic p65 ratio, rep 1: 2.04; nuclear/cytoplasmic p65 ratio, rep 2: 1.95; low cell count flag: enough cells to score

Which result is listed for Igsf9?
nuclear/cytoplasmic p65 ratio, rep 1: 1.52; nuclear/cytoplasmic p65 ratio, rep 2: 1.37; low cell count flag: fewer than 50 cells per well; well left out of scoring

Which result is listed for Tipin?
nuclear/cytoplasmic p65 ratio, rep 1: 1.31; nuclear/cytoplasmic p65 ratio, rep 2: 1.21; low cell count flag: fewer than 50 cells per well; well left out of scoring

With Cd81, how do the results read?
nuclear/cytoplasmic p65 ratio, rep 1: 1.19; nuclear/cytoplasmic p65 ratio, rep 2: 1.12; low cell count flag: fewer than 50 cells per well; well left out of scoring

What is on record for Vmn1r50?
p65 translocation robust z-score: -0.7; nuclear/cytoplasmic p65 ratio, rep 1: 1.3; nuclear/cytoplasmic p65 ratio, rep 2: 1.1; low cell count flag: enough cells to score

What did the screen give for Npy5r?
p65 translocation robust z-score: 1.83; nuclear/cytoplasmic p65 ratio, rep 1: 1.67; nuclear/cytoplasmic p65 ratio, rep 2: 1.95; low cell count flag: enough cells to score

How did the screen score Azin1?
p65 translocation robust z-score: -0.31; nuclear/cytoplasmic p65 ratio, rep 1: 1.58; nuclear/cytoplasmic p65 ratio, rep 2: 1.56; low cell count flag: enough cells to score

For Ptgs2, how do the results read?
p65 translocation robust z-score: -1.03; nuclear/cytoplasmic p65 ratio, rep 1: 1.38; nuclear/cytoplasmic p65 ratio, rep 2: 1.25; low cell count flag: enough cells to score

What did the screen give for Fyttd1?
nuclear/cytoplasmic p65 ratio, rep 1: 1.22; nuclear/cytoplasmic p65 ratio, rep 2: 1.62; low cell count flag: fewer than 50 cells per well; well left out of scoring

Reformatted: results already given
gene knocked down,p65 translocation robust z-score,"nuclear/cytoplasmic p65 ratio, rep 1","nuclear/cytoplasmic p65 ratio, rep 2",low cell count flag
Cdyl2,0.91,1.65,2.02,enough cells to score
Rasa1,0.2,1.57,1.52,enough cells to score
